Laboratory results reported in publication PMC8617289.
No constants are given. Whether binding was seen depends on the method and setting. Binding seen in cells or lysates may run through a third protein. Some binding calls cover weakened binding; strength is not graded here.

The chains behind the UniProt entries cited, without tags or fusion partners.
UniProt A2A935: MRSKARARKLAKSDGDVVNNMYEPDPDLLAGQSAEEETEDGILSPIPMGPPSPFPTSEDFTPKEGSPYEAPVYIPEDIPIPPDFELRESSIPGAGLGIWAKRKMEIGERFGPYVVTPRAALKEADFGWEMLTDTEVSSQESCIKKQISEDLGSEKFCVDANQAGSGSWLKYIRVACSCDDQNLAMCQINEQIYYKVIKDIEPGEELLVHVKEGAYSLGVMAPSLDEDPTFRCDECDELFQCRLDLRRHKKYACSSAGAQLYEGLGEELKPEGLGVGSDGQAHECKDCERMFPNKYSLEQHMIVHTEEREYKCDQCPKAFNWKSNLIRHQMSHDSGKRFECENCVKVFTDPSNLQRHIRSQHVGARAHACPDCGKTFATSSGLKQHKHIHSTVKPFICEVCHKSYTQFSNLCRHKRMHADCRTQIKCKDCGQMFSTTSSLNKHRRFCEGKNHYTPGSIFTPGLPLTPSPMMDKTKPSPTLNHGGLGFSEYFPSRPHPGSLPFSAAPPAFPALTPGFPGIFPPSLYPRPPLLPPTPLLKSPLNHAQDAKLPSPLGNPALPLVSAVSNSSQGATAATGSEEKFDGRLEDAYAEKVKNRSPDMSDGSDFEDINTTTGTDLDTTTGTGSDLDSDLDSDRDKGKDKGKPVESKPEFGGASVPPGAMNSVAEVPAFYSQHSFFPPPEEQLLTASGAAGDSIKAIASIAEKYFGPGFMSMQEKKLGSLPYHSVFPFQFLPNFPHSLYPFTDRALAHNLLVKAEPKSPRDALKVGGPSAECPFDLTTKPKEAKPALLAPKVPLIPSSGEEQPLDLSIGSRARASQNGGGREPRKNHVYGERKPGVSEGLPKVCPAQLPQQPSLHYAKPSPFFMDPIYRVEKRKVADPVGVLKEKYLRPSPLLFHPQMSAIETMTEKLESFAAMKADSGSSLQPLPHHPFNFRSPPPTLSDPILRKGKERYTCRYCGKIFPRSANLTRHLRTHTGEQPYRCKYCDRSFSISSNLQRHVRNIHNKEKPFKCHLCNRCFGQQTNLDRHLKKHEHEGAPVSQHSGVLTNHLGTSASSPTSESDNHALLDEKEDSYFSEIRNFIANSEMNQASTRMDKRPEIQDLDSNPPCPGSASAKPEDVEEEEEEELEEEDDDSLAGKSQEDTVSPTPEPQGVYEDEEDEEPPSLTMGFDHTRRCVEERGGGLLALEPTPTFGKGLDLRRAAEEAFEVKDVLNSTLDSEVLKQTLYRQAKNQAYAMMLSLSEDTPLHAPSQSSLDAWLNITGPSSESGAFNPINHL

B1: PGC-1a (protein, UniProt O70343 1-797)
chain: MAWDMCSQDSVWSDIECAALVGEDQPLCPDLPELDLSELDVNDLDTDSFLGGLKWCSDQSEIISNQYNNEPANIFEKIDEENEANLLAVLTETLDSLPVDEDGLPSFDALTDGAVTTDNEASPSSMPDGTPPPQEAEEPSLLKKLLLAPANTQLSYNECSGLSTQNHAANHTHRIRTNPAIVKTENSWSNKAKSICQQQKPQRRPCSELLKYLTTNDDPPHTKPTENRNSSRDKCASKKKSHTQPQSQHAQAKPTTLSLPLTPESPNDPKGSPFENKTIERTLSVELSGTAGLTPPTTPPHKANQDNPFKASPKLKPSCKTVVPPPTKRARYSECSGTQGSHSTKKGPEQSELYAQLSKSSGLSRGHEERKTKRPSLRLFGDHDYCQSLNSKTDILINISQELQDSRQLDFKDASCDWQGHICSSTDSGQCYLRETLEASKQVSPCSTRKQLQDQEIRAELNKHFGHPCQAVFDDKSDKTSELRDGDFSNEQFSKLPVFINSGLAMDGLFDDSEDESDKLSYPWDGTQPYSLFDVSPSCSSFNSPCRDSVSPPKSLFSQRPQRMRSRSRSFSRHRSCSRSPYSRSRSRSPGSRSSSRSCYYYESSHYRHRTHRNSPLYVRSRSRSPYSRRPRYDSYEAYEHERLKRDEYRKEHEKRESERAKQRERQKQKAIEERRVIYVGKIRPDTTRTELRDRFEVFGEIEECTVNLRDDGDSYGFITYRYTCDAFAALENGYTLRRSNETDFELYFCGRKQFFKSNYADLDTNSDDFDPASTKSKYDSLDFDSLLKEAQRSLRR

Key:
[1] = target: PRDM16 (mouse (endogenous in MEFs and BAT cells)) (UniProt A2A935); assay: co-IP; endogenous PRDM16 immunoprecipitated from brown progenitors/preadipocytes or SVFs isolated from mouse BAT (fetal E18.5 and adult, control or maternal obesity; AAV-scramble or AAV-Dio3os injected mice); immunoblot for PGC-1a and CtBP1; IgG as negative control
[2] = target: PRDM16 (mouse (endogenous in MEFs and BAT cells)) (UniProt A2A935); assay: co-IP; endogenous PRDM16 immunoprecipitated (anti-PRDM16, protein A magnetic beads) from lysate (0.75% NP-40, 1 mM DTT) of MEFs after 2 days of brown adipogenic commitment; scramble, Dio3os-cas9 knockdown, Dio3os-cas9 + 50 nM T3; immunoblot for PGC-1a and CtBP1; IgG as negative control
[3] = target: PRDM16 (mouse (endogenous in MEFs and BAT cells)) (UniProt A2A935); assay: co-IP; PGC-1a/PRDM16 complex in spheroids formed from fetal BAT stromal vascular cells; Dio3os knockdown with or without T3 supplementation

| Molecule | binding [1] | binding [2] | binding [3] |
| --- | --- | --- | --- |
| CtBP1 (from UniProt O88712 1-441) | binds | binds | – |
| B1 | binds | binds | binds |
